Data reported in PMC4877760.

Chains of the proteins cited; added tags and fusions are not shown. Lines headed by an entry give the natural chain unless they say otherwise; changes in a name come on top. A line that says so, or that is headed by a name, gives the form on record, which may keep a tag or linker. Residues count along the entry.
UniProt Q05655: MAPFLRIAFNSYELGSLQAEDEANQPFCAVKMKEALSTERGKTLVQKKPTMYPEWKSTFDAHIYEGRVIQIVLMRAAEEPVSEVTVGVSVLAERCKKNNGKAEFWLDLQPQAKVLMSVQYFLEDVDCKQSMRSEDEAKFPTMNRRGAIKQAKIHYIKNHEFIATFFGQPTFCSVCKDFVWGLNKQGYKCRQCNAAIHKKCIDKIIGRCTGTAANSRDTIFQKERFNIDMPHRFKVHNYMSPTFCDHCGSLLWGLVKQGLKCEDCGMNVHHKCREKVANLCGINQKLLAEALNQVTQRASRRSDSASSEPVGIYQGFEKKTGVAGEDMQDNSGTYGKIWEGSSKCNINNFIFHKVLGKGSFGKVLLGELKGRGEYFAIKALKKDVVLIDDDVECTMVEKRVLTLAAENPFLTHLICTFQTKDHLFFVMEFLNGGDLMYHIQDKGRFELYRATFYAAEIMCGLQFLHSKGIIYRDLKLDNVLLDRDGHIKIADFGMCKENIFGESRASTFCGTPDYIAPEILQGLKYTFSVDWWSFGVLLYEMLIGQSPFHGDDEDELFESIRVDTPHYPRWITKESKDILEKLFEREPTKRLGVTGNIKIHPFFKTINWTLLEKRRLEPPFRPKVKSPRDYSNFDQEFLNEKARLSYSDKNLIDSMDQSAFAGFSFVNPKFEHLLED
EGFP fusion of the C2 domain of PKCδ: residues 1-106 of Q05655
UniProt P05771: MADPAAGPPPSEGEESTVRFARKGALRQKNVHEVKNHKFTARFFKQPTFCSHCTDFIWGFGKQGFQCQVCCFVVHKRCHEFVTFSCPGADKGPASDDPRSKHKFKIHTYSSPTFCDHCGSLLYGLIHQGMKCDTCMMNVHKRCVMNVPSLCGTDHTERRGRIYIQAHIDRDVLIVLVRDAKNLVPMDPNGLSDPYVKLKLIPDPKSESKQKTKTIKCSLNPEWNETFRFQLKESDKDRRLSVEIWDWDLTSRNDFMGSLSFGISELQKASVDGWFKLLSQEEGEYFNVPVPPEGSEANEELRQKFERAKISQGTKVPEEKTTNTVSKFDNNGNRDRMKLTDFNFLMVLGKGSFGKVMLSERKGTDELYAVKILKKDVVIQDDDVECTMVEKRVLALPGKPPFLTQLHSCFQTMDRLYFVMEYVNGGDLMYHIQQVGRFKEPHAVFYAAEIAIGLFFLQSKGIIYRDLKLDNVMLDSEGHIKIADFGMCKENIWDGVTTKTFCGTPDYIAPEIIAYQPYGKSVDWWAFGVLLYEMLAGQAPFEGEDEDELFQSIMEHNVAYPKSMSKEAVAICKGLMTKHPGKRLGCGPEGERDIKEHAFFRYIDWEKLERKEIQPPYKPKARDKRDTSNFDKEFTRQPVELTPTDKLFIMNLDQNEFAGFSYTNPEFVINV
full-length EGFP-tagged PKCβII (P05771, form named): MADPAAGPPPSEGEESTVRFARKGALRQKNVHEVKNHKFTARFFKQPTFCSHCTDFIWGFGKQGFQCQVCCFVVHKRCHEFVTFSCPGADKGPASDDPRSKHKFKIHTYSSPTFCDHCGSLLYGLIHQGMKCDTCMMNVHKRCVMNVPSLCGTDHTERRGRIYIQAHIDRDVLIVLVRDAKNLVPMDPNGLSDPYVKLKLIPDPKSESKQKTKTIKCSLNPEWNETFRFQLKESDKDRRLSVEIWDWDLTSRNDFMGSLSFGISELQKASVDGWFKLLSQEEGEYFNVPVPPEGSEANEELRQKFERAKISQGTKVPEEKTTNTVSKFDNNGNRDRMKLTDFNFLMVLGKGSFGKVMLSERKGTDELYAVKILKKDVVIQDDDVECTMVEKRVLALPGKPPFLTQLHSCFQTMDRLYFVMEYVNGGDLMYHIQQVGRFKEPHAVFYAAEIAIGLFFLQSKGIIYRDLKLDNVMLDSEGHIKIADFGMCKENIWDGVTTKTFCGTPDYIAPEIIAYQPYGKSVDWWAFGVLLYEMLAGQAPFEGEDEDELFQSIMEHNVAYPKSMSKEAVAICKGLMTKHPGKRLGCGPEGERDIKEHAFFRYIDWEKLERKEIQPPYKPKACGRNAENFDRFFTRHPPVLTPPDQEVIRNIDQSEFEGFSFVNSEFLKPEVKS
UniProt Q02156: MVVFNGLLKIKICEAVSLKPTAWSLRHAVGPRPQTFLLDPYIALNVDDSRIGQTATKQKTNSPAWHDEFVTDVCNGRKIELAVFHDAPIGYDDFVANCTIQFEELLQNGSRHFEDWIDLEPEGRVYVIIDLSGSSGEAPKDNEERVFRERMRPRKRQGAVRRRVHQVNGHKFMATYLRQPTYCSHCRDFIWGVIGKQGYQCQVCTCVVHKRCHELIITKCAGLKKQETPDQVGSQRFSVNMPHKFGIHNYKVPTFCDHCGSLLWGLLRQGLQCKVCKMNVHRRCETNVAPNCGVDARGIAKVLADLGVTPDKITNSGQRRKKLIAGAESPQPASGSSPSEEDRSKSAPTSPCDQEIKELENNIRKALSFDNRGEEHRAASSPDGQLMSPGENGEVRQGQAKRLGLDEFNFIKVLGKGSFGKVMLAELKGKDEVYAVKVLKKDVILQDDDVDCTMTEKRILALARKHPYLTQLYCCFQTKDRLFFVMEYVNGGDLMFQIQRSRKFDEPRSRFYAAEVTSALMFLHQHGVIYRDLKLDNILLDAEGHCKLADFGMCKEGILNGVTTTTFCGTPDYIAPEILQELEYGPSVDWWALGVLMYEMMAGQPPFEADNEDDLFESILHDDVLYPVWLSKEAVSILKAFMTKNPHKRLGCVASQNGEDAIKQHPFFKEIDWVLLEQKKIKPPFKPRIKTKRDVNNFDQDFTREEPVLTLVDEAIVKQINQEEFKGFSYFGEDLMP
UniProt P24723: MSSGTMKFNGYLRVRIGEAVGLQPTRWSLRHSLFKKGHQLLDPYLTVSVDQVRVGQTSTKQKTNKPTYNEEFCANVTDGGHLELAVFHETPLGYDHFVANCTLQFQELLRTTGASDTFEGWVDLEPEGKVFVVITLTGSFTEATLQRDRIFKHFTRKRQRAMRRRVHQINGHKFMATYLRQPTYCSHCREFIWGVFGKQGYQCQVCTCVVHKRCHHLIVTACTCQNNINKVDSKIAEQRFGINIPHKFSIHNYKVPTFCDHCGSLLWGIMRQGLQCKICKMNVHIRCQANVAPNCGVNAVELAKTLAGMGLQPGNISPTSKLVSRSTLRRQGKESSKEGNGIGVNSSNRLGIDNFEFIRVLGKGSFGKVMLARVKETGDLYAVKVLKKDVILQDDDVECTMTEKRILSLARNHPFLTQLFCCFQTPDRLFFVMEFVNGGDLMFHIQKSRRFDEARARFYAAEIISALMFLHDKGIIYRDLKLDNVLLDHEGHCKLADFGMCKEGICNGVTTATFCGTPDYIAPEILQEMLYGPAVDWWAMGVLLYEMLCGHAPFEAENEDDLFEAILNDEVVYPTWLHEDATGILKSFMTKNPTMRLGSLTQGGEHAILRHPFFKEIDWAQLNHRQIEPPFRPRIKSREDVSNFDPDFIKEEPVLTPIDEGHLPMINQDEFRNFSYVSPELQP
UniProt Q04759: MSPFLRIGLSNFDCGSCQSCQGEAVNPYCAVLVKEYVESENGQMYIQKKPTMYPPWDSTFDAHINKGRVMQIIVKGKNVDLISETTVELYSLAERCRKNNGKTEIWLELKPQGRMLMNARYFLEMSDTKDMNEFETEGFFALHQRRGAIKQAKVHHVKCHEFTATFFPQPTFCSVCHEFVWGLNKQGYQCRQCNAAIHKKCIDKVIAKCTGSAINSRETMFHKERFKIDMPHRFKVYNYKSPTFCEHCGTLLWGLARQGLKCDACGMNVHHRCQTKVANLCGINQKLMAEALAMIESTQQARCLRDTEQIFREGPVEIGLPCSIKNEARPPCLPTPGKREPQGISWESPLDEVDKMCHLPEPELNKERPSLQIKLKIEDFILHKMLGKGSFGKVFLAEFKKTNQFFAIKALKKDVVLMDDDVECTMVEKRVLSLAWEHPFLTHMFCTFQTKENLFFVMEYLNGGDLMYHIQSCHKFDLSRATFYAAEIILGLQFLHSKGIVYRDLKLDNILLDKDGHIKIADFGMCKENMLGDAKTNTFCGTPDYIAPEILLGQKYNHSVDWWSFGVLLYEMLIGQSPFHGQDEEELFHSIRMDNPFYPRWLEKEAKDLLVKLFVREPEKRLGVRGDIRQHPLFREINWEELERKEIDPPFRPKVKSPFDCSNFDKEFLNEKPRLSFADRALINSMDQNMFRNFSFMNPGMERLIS
UniProt Q9NR28: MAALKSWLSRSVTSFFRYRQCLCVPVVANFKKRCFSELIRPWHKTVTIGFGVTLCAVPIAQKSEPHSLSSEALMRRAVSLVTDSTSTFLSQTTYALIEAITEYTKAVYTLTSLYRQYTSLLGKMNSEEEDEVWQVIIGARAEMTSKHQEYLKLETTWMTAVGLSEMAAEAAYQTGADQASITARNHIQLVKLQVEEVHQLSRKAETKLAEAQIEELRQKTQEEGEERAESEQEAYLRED

Experiments:
[1] = target: EGFP-tagged full-length PKCδ (UniProt Q05655); assay: co-IP; COS-7 cells co-transfected with Smac-FLAG and EGFP-tagged PKC constructs; GFP-immunoprecipitation from lysates (μMACS GFP-Tagged Protein Isolation Kit), Western blot; where indicated cells treated with 16 nM TPA with or without 2 μM GF109203X for 16 h
[2] = target: full-length EGFP-tagged PKCβI (UniProt P05771); assay: as above
[3] = target: full-length EGFP-tagged PKCε (UniProt Q02156); assay: as above
[4] = target: full-length EGFP-tagged PKCη (UniProt P24723); assay: as above
[5] = target: EGFP fusion of the C2 domain of PKCδ (UniProt Q05655); assay: as above
[6] = target: full-length PKCδ Y64D (EGFP fusion) (UniProt Q05655); assay: as above
[7] = target: full-length EGFP-tagged PKCβII (UniProt P05771); assay: as above
[8] = target: full-length PKCδ Y313D (EGFP fusion) (UniProt Q05655); assay: as above
[9] = target: full-length EGFP-tagged PKCθ (UniProt Q04759); assay: as above
[10] = target: full-length PKCδ Y155D (EGFP fusion) (UniProt Q05655); assay: as above
[11] = target: endogenous PKCδ (human (endogenous in MCF-7)) (UniProt Q05655); assay: co-IP; MCF-7 cells transfected with Smac-HSV; immunoprecipitation of endogenous PKCδ with 1 μg anti-PKCδ antibody and protein G microbeads, Western blot; where indicated cells treated with 16 nM TPA for 16 h

Measured: binding

full-length Smac-FLAG (from UniProt Q9NR28)
not listed: [11]
binds: all other assays above

immature, MTS-containing Smac (from Smac-HSV) (from UniProt Q9NR28)
binds: [11]

No constants are given. Whether binding was seen depends on the method and setting. Binding seen in cells or lysates may run through a third protein. Binding can be weak; no strength is given.
